Laboratory results as given in the supplement of paper PMC3334620.
Over roughly 33,000 sequences, “E-score (-0.5 to 0.5)” has its median near -0.0034; the highest 2% begin near 0.25. This is one part of the list.

molecular target: T1, Yap3 (UniProt P38749); assay: PBM E-score (8-mer binding enrichment) (E-score (-0.5 to 0.5)); higher = stronger / more preferred TF binding; details: protein concentration: 100 nM; construct: GST-full length
T1 sequence: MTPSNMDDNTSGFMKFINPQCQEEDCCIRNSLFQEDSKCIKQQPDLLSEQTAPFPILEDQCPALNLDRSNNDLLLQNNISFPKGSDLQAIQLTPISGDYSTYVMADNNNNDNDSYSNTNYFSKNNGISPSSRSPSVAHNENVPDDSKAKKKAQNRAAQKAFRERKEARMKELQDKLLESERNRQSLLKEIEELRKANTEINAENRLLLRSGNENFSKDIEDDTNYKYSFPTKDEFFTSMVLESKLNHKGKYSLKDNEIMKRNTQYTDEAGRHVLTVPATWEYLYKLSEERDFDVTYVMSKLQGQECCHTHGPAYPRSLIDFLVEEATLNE
Method: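 Universal 'all 10-mer' protein binding microarrays (Agilent AMADID 015681) probed with GST-tagged S. cerevisiae TFs (full-length or DBD) made by in vitro transcription/translation (PURExpress), about 100-200 nM. Bound TF was detected with fluorescent anti-GST. Each ungapped 8-mer (which stands for itself and its reverse complement) is scored by the PBM enrichment score (E-score), a modified Wilcoxon-Mann-Whitney statistic from -0.5 to +0.5, computed with the Universal PBM Analysis Suite. Scale: above 0.35 generally sequence-specific binding.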

Row | Sequence | PBM E-score
1 | CCCGAAAG | -0.0267
2 | CATGTGGC | 0.0138
3 | AAGGCTAT | -0.114
4 | ATTGCAAG | 0.0639
5 | GGCGCGCC | 0.0405
6 | ACTACAAT | 0.182
7 | AGAGATCC | -0.00859
8 | CCACTTAC | 0.257
9 | CTAGCCGC | -0.00419
10 | ACACGAGT | 0.168
11 | AGAGCAAG | 0.171
12 | CGGAATTA | 0.187
13 | CGTCCATA | 0.076
14 | GCGGTATA | 0.0717
15 | GGCCACCA | -0.0476
16 | AAAGGGGG | -0.272
17 | TTGACAAA | 0.219
18 | ACCTGATA | 0.195
19 | CCCGTTCA | -0.106
20 | CTATATAC | 0.367
21 | CCAACAGG | -0.153
22 | ACGATCCC | -0.305

Row | Sequence | PBM E-score
23 | CCAAGCGG | -0.262
24 | GTGGCTAA | 0.0934
25 | ACAATCGT | -0.0198
26 | GGTACTAA | 0.0733
27 | GGGTTACC | -0.0994
28 | AACAGATC | 0.18
29 | ACGCGCCC | -0.0778
30 | GTTGGCTA | 0.12
31 | CCAGTCCG | -0.267
32 | CCATTATC | 0.103
33 | ATAACGGA | 0.205
34 | AGGCTTAT | 0.031
35 | ATAGCCTA | -0.078
36 | AATACAGG | 0.213
37 | GCTGCTAA | 0.00183
38 | CGTGCAAC | 0.0468
39 | GTCTTAGA | -0.128
40 | CGCTCTCC | -0.284
41 | ACATGAAT | 0.0119
42 | CCTGGGGC | -0.404
43 | AACTGCTC | -0.0019
44 | AGATTCCC | -0.0449

A different layout for some results above:
Row	Sequence	PBM E-score
5	GGCGCGCC	0.0405
6	ACTACAAT	0.182
7	AGAGATCC	-0.00859
8	CCACTTAC	0.257
9	CTAGCCGC	-0.00419
10	ACACGAGT	0.168
11	AGAGCAAG	0.171
12	CGGAATTA	0.187
13	CGTCCATA	0.076
14	GCGGTATA	0.0717
15	GGCCACCA	-0.0476
16	AAAGGGGG	-0.272
17	TTGACAAA	0.219
18	ACCTGATA	0.195
19	CCCGTTCA	-0.106
20	CTATATAC	0.367
21	CCAACAGG	-0.153
22	ACGATCCC	-0.305
23	CCAAGCGG	-0.262
24	GTGGCTAA	0.0934
25	ACAATCGT	-0.0198
26	GGTACTAA	0.0733
27	GGGTTACC	-0.0994
28	AACAGATC	0.18
29	ACGCGCCC	-0.0778
30	GTTGGCTA	0.12
31	CCAGTCCG	-0.267
32	CCATTATC	0.103
33	ATAACGGA	0.205
34	AGGCTTAT	0.031
35	ATAGCCTA	-0.078
36	AATACAGG	0.213
37	GCTGCTAA	0.00183

(next part)

Row | Sequence | PBM E-score
45 | CTATAACA | -0.0866
46 | ACGATGGG | -0.079
47 | CCCCTCCA | -0.228
48 | CTCCGCAC | -0.227
49 | GCCCTCAC | -0.222
50 | TAATCAGA | 0.101
51 | CATTTCAC | 0.204
52 | CATCTGCC | 0.00952
53 | CTGTTGCC | -0.0165
54 | GACTTTTA | -0.0284
55 | ATAGACCG | -0.0339
56 | GGGTGAAC | -0.0926
57 | CTGTTCGA | -0.192
58 | CTAACGAA | -0.075
59 | ATTCCTCC | -0.0883
60 | AAGTGATT | 0.183
61 | GAAATCCA | 0.0886
62 | CTGCCGTC | -0.168
63 | CAGCTGGG | -0.158
64 | GGTTAATA | 0.0683
65 | CTTCGCTC | -0.0997
66 | ATACGCGG | -0.00618

Row | Sequence | PBM E-score
67 | AGGGACTG | -0.168
68 | ATAGCCCG | -0.28
69 | GCAAAAGA | 0.0607
70 | ACGATTAG | 0.159
71 | GTGTTTAA | 0.197
72 | CAATTGTA | 0.0214
73 | ATCAGATC | -0.0788
74 | GATGGTAC | 0.0934
75 | ACAACCCC | -0.123
76 | GCATAGCC | -0.266
77 | ATCAAACC | 0.179
78 | AGACTACC | 0.0396
79 | ACGTTCAG | -0.093
80 | GCGGTACA | -0.0254
81 | ATCCAGTC | 0.0451
82 | AAGCGGTC | -0.0918
83 | AGCACACT | 0.0288
84 | CGTGGATA | -0.0137
85 | AACGAGTA | 0.19
86 | GCCCACCC | -0.0177
87 | CTGGGGTA | -0.059
88 | CTGTTCGC | 0.0298

Copied from above: nos. 65 to 67
Row | Sequence | PBM E-score
65 | CTTCGCTC | -0.0997
66 | ATACGCGG | -0.00618
67 | AGGGACTG | -0.168

(continued)

Row | Sequence | PBM E-score
89 | GTTACTAA | 0.339
90 | ATGGCCAT | 0.114
91 | AATCGCCT | 0.0192
92 | GTCGGGTA | 0.0387
93 | GGGTCTAA | -0.125
94 | CTTAGATA | 0.123
95 | ATACCGTA | 0.0777
96 | GATGGGGC | -0.261
97 | CGACCTAC | -0.119
98 | ACCCGCGC | 0.179
99 | CCAAACTC | 0.0795
100 | AACGCTCG | 0.0181
101 | CCGTACAG | 0.0119
102 | CGGGGAAC | -0.117
103 | AAAATCGC | 0.118
104 | GGCCTACA | 0.0088
105 | ATTTACTA | 0.201
106 | GTATATGA | 0.144
107 | ACGGCAGG | -0.299
108 | CTCTCCCA | -0.109
109 | GTTGGAGA | 0.0135
110 | CCGGATAA | 0.0988
